Experimental data from PMC10293810.
For some of these results: No signal at the amounts used counts as a negative. For some of these results: At least one verdict was read from the data and is not stated in words by the source. For some of these results: Tags and fusion partners may be left off the protein sequences shown. For some of these results: For at least one entry, the source does not settle the construct or the ends of the probe. For some of these results: A weaker result is weaker than the reference pair of the same experiment.

Sequences of proteins named here, by UniProt entry; tags and fusion partners are left off. Residues count along the entry.
UniProt Q91XB0, 1-242 R174A/K175A: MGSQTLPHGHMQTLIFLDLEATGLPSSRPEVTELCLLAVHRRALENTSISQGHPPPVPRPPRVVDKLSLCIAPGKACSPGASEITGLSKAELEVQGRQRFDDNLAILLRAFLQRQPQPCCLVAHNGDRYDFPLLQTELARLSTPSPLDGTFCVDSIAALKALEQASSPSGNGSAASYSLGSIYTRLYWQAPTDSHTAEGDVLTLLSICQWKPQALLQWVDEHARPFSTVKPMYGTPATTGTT
UniProt Q91XB0, 1-242: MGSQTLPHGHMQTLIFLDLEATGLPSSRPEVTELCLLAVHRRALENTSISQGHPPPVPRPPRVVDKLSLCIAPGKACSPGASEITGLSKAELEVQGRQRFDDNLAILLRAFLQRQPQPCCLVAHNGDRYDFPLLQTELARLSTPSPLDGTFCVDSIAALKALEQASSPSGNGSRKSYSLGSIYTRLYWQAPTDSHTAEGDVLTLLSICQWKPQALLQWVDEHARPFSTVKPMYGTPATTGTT

Legend:
[1] = molecular target: T1, FBF-2 RNA-binding domain (Caenorhabditis elegans) (UniProt Q09312); assay: competition with a labelled probe; details: nonbinding carrier C3; recombinant protein; residues 164-575
T1 sequence (looked up): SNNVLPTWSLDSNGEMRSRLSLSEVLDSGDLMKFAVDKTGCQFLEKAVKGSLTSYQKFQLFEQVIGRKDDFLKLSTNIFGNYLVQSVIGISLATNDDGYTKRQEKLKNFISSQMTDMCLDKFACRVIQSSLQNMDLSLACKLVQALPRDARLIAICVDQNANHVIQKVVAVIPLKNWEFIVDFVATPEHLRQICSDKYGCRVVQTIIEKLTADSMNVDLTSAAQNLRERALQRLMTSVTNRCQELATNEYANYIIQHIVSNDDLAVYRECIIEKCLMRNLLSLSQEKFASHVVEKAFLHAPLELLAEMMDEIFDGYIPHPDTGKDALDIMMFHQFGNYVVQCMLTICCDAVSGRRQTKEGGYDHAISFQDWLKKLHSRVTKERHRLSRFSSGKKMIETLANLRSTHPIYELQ

[2] = molecular target: T2, MS2 coat protein V75E,A81G V76E,A82G (MS2 bacteriophage) (UniProt P03612); assay: competition with a labelled probe; details: nonbinding carrier C3; recombinant protein
T2 sequence (looked up, limits assumed): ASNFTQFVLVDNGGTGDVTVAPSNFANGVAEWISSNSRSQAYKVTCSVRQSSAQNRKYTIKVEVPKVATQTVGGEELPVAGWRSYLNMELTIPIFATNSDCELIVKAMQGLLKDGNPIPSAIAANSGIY

[3] = molecular target: TREX1 R174A,K175A (murine) (UniProt Q91XB0); assay: fluorescence polarization; details: 25 C, apparent Kd; FP with 5 nM ligand at 25 C (some FPCD at 4 C); buffer for MS2-CP (BB6): 100 mM Tris pH 7.5, 10 mM MgCl2, 80 mM KCl, 0.1 mg/mL BSA; recombinant protein; residues 1-242; protein details: MBP fusion, cleaved by protease (similar to WT); label: 5' 6-FAM on both strands
[4] = molecular target: TREX1 catalytic core (murine) (UniProt Q91XB0); assay: fluorescence polarization; details: higher salt; FP with 5 nM ligand at 25 C (some FPCD at 4 C); buffer for MS2-CP (BB6): 100 mM Tris pH 7.5, 10 mM MgCl2, 80 mM KCl, 0.1 mg/mL BSA; recombinant protein; residues 1-242; protein details: MBP fusion, cleaved by protease; label: 5' 6-FAM on both strands

Sequence	binding result [1]	binding result [2]	Kd [3]	binding result [4]
AAAAAAAAAA [r(A)10 (C3)]	no binding	no binding		
GAAGTGCCCGTGACGCGCGCGACGCCAGCCGACGAAGGCGGGACCCAGAGCGCGCGCCGT (double strand) [ds-[F]d(N)60]			130 nM	binds more weakly
